Measured values published in patent US20090305339A1, “Polypeptides With Laccase Activity” (VIALACTIA BIOSCIENCES (NZ) LIMITED, priority 2006, published 2009).
Changes are numbered by the printed parent chain. Names and notes keep the numbering of the source.

B1: H73A: RL5 laccase mutant, histidine 73 replaced by alanine (protein)
chain: MIELEKLDFAKSVEGVEAFSTTRGQVDGRNAYSGVNLCDYVGDDALRVLDARLTLAMQLGVDLDDLVMPRQTASCRVAVIDERFRALDIDEQEAALEGVDALVTRLQGIVIGVNTADCVPIVLVDSQAGIVAVSHAGWRGTVGRIAKAVVEEMCRQGATVDRIQAAMGPSICQDCFEVGDEVVEAFKKAHFNLNDIVVRNPATGKAHIDLRAANRAVLVAAGVPAANIVESQHCSRCEHTSFFSARRLGINSGRTFTGIYRK
B2: H135A: RL5 laccase mutant, histidine 135 replaced by alanine (protein)
chain: B1 chain with A73H, H135A
B3: H233A: RL5 laccase mutant, histidine 233 replaced by alanine (protein)
chain: B1 chain with A73H, H233A
B4: H190A: RL5 laccase mutant, histidine 190 replaced by alanine (protein)
chain: B1 chain with A73H, H190A
B5: H207A: RL5 laccase mutant, histidine 207 replaced by alanine (protein)
chain: B1 chain with A73H, H207A
B6: H239A: RL5 laccase mutant, histidine 239 replaced by alanine (protein)
chain: B1 chain with A73H, H239A
B7: C75Q: RL5 laccase mutant, cysteine 75 replaced by glutamine (protein)
chain: B1 chain with A73H, C75Q
B8: C118Q: RL5 laccase mutant, cysteine 118 replaced by glutamine (protein)
chain: B1 chain with A73H, C118Q

Assay: Copper content by ICP-MS
Details: for decrease of copper binding: versus wild type

Molecule | decrease of copper binding | metal content relative to wild type enzyme | other results
B1 | approx. 25% | – | –
B2 | approx. 25% | – | –
B3 | approx. 25% | – | –
B4 | – | 75% | –
B5 | – | 75% | –
B6 | – | 75% | –
B7 | – | – | copper content: 3 molecules of copper per monome
B8 | – | – | copper content: 3 molecules of copper per monome
